From article PMC6107238, “Conformational plasticity of the intrinsically disordered protein ASR1 modulates its function as a drought stress-responsive gene” (PLoS ONE, 2018) come the findings set out here.

The exact form of at least one protein or probe is not confirmed. A negative result means that nothing was seen under these conditions. Protein sequences can lack the tags named with them.

The data set deals with T1, ASR1 (Abscisic, Stress, Ripening 1) (Solanum lycopersicum (tomato)) (UniProt Q08655).
T1 sequence (looked up, limits assumed): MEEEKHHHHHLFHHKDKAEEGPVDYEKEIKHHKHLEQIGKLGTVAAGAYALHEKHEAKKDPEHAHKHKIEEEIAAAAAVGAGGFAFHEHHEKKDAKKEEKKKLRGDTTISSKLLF
The experiment in a line: fluorescence anisotropy. The note with it: no Zn2+; Buffer H: 100 mM NaCl, 20 mM HEPES pH 7.4, with 100 uM ZnCl2; 250 nM FITC-dsDNA; anisotropy temperature not stated (CD at 25 C); recombinant protein; label: 5' FITC on one strand.

As to “TATTGGGCTTGG (double strand) [FITC-oligoC]”, the binding result is listed as “no binding”.
